{"source": "PubChem BioAssay AID1671195 (Yale University, 2021)", "screen": "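Regulators of LDL receptor activity judged by labelled LDL uptake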 (primary screen)", "cells": "human Huh7 hepatoma cells", "reagents": "siRNA pool against human genes, 18 nM", "time to read-out": "about 2 to 2.5 days of knockdown, then 8 h LDL uptake", "treatment": "DiI-labelled LDL at 30 µg/ml for 8 h, in lipoprotein-deficient serum medium", "measured": "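Per-cell DiI-LDL intensity by automated imaging; well means scaled to the plate median and given as a robust z-score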", "reading the numbers": "robust z-score: higher = more LDL uptake after knockdown", "active means": "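a gene counts as active if at least two replicate z-scores exceed ±2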", "note": "In all, the deposit lists about 22,000 reagents; this is a part drawn at random. About 1,510 of them (6.9%) count as active. 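Active includes knockdowns raising or lowering LDL uptake; positive z-scores mean more uptake, negative mean less.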 A number with no mark means an inactive call."}
{"gene knocked down": "AHCTF1 (AT-hook containing transcription factor 1)", "robust z-score, replicate 1": 1.04, "robust z-score, replicate 2": 1.31, "robust z-score, replicate 3": 1.74}
{"gene knocked down": "TRMO (tRNA methyltransferase O)", "robust z-score, replicate 1": 0.344, "robust z-score, replicate 2": -1.32, "robust z-score, replicate 3": -1}
{"gene knocked down": "FLJ33534 (Putative uncharacterized protein FLJ33534)", "robust z-score, replicate 1": 0.133, "robust z-score, replicate 2": 0.362, "robust z-score, replicate 3": 0.396}
{"gene knocked down": "CCL28 (C-C motif chemokine ligand 28)", "robust z-score, replicate 1": 0.385, "robust z-score, replicate 2": 1.36, "robust z-score, replicate 3": -0.118}
{"gene knocked down": "FAM163A (family with sequence similarity 163 member A)", "robust z-score, replicate 1": 1.74, "robust z-score, replicate 2": 0.132, "robust z-score, replicate 3": 0.123}

A stretch from the list above, as a working copy:
{"gene knocked down": "FLJ33534 (Putative uncharacterized protein FLJ33534)", "robust z-score, replicate 1": 0.133, "robust z-score, replicate 2": 0.362, "robust z-score, replicate 3": 0.396}
{"gene knocked down": "CCL28 (C-C motif chemokine ligand 28)", "robust z-score, replicate 1": 0.385, "robust z-score, replicate 2": 1.36, "robust z-score, replicate 3": -0.118}

The listing continues:
{"gene knocked down": "TMEM225 (transmembrane protein 225)", "robust z-score, replicate 1": -0.82, "robust z-score, replicate 2": -0.909, "robust z-score, replicate 3": -0.764}
{"gene knocked down": "TMEM235 (transmembrane protein 235)", "robust z-score, replicate 1": "2.26 (active)", "robust z-score, replicate 2": 2.13, "robust z-score, replicate 3": 1.12}
{"gene knocked down": "PLB1 (phospholipase B1)", "robust z-score, replicate 1": 0.72, "robust z-score, replicate 2": 0.983, "robust z-score, replicate 3": 0.622}
{"gene knocked down": "ACTN2 (actinin alpha 2)", "robust z-score, replicate 1": 1.2, "robust z-score, replicate 2": 1.74, "robust z-score, replicate 3": 0.518}
{"gene knocked down": "CENPC (centromere protein C)", "robust z-score, replicate 1": 0.531, "robust z-score, replicate 2": 0.893, "robust z-score, replicate 3": 0.592}
{"gene knocked down": "CFAP70 (cilia and flagella associated protein 70)", "robust z-score, replicate 1": 0.36, "robust z-score, replicate 2": 0.254, "robust z-score, replicate 3": 0.334}
{"gene knocked down": "OR13C9 (olfactory receptor family 13 subfamily C member 9)", "robust z-score, replicate 1": -1.07, "robust z-score, replicate 2": -1.05, "robust z-score, replicate 3": -1.1}
{"gene knocked down": "PLAC1 (placenta associated 1)", "robust z-score, replicate 1": -0.076, "robust z-score, replicate 2": -0.653, "robust z-score, replicate 3": -1.58}
{"gene knocked down": "FAM182B (family with sequence similarity 182 member B)", "robust z-score, replicate 1": 0.301, "robust z-score, replicate 2": 0.278, "robust z-score, replicate 3": 0.297}
{"gene knocked down": "HLA-DQB2 (major histocompatibility complex, class II, DQ beta 2)", "robust z-score, replicate 1": -1.68, "robust z-score, replicate 2": -0.969, "robust z-score, replicate 3": -1.43}
{"gene knocked down": "SDE2 (spliceosome associated SDE2)", "robust z-score, replicate 1": 0.101, "robust z-score, replicate 2": 0.264, "robust z-score, replicate 3": 1.24}
